For the data set, the target named is T1, MmsR (LysR-type transcriptional activator, C4-LysR) (Pseudomonas denitrificans ATCC 13867) (UniProt A0A9X7MYS1).
T1 sequence (looked up, limits assumed): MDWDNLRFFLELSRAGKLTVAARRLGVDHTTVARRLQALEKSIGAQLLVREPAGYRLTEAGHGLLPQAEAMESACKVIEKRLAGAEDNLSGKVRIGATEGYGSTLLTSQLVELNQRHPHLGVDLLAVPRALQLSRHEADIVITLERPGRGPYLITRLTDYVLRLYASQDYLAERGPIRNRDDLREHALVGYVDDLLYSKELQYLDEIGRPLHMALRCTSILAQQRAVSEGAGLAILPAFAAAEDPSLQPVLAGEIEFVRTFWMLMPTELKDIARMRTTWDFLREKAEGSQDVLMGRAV
As to the kind of experiment: EMSA. The conditions noted are these: 50 mM Tris pH 7.4, 0.5 mM DTT, 0.5 mM EDTA, room temperature, EMSA 40 nM DNA, 0-48.5 nM MmsR, 30 min, footprinting 230 nM DNA, 0-1.2 uM MmsR, recombinant protein, protein details: C-terminal His6 (pET30b+), label: none (SYBR Green stain). For orientation: Mobility shift assays separate free from complexed probe on a gel.

Construct, isoform or probe ends are uncertain for at least one entry. A negative result means that nothing was seen under these conditions. Tags and fusion partners may be left off the protein sequences shown. The comparison behind a weaker result is the experiment's own reference, which may not be listed here.

We go through two sequences from paper PMC6441110, “A novel 3-hydroxypropionic acid-inducible promoter regulated by the LysR-type transcriptional activator protein MmsR of Pseudomonas denitrificans” (Scientific Reports, 2019).

With “GTCAGCCTCAGCGCACCTCGATCCTTGCTAAACGCAGACCATACCGCCCAGGCACCGCATTGAGTACATCAATCCTTGCTTGTTAGGATCGCGCCCAGGCACAAAAAAGCCACAGGCTGGGAGAATCCCG (double strand) [F1M2M (O1 and O2 mutant)]”, the binding result (no shift up to 72.7 nM MmsR, 3-HP state not specified) is “no binding”.

For the sequence “GTCAGCCTCAGCGCACCTCGATCCTTGCTAAACGCAGACCATACCGCCCAGGCACCGCATTGAGTACATCAAAAATGCACTGTTAGGATCGATCCAGACAACAAAAAAGCCACAGGCTGGGAGAATCCCG (double strand) [F1M2 (O1 mutant, O2 intact)]”, the binding result is, setting by setting: (25 mM 3-HP (binding greatly reduced)) “binds more weakly”; (no 3-HP) “binds more weakly”.
